# Results are given in words; binding and its absence hold for the method and conditions named. Binding seen in cells or lysates may run through a third protein. Some entries that bind do so weakly or less than the wild type. For some of these results: Sequences can lack the tags named with a protein.
# The chains behind the UniProt entries cited, without tags or fusion partners.
# UniProt P40763: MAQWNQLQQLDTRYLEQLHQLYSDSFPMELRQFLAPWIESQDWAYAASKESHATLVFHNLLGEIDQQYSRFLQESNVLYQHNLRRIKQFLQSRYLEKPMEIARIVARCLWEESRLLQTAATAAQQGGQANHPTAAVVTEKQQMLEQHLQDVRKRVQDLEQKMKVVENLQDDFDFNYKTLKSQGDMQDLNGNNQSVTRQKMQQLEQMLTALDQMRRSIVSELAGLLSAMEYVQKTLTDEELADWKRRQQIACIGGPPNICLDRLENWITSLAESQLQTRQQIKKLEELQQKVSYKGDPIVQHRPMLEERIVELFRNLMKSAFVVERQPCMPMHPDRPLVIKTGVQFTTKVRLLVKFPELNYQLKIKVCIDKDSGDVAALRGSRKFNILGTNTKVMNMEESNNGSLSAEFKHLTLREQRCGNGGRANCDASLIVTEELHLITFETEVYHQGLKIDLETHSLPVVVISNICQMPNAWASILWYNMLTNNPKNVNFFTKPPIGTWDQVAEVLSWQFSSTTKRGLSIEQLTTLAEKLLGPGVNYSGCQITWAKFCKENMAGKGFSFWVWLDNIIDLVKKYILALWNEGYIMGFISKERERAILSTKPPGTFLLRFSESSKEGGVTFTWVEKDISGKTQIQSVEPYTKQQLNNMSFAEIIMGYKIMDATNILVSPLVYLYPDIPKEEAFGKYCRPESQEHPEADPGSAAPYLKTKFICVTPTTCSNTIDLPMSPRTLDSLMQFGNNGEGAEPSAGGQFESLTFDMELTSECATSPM
# UniProt Q15022: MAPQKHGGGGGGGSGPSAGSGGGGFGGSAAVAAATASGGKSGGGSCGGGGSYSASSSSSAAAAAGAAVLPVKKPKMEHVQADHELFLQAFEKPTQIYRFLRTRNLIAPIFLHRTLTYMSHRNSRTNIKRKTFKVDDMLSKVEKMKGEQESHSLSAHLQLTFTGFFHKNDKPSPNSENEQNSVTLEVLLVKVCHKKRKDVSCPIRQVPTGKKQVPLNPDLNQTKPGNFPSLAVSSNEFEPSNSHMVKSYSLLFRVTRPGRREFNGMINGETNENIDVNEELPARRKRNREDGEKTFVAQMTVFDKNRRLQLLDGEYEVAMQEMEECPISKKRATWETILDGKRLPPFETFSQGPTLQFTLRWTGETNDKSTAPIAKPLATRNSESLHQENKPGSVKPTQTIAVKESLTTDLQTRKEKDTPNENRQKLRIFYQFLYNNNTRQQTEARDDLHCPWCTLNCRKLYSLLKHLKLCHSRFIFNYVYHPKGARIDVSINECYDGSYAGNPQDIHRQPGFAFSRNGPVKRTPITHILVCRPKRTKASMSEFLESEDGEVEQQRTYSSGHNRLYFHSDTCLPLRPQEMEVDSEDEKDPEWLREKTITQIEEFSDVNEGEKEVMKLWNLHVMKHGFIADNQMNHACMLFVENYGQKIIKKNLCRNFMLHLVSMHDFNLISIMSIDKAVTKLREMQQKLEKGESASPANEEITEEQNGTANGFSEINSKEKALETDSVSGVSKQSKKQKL
# UniProt Q13547: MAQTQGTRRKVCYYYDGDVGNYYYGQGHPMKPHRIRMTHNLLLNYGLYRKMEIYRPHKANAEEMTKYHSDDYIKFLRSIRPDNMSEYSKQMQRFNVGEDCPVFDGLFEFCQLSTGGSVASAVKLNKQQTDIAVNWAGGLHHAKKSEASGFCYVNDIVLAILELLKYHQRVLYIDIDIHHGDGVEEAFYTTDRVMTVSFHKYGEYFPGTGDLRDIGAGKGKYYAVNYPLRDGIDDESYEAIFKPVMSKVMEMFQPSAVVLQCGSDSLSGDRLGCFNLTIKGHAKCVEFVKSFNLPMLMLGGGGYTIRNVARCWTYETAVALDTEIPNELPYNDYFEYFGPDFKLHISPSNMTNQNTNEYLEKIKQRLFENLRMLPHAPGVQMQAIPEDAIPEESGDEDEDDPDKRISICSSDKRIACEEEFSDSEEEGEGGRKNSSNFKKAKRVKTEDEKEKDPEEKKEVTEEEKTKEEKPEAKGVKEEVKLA
# T1: endogenous SNAI2 (human (endogenous in UM-SCC1)) (UniProt O43623)
# T1 sequence: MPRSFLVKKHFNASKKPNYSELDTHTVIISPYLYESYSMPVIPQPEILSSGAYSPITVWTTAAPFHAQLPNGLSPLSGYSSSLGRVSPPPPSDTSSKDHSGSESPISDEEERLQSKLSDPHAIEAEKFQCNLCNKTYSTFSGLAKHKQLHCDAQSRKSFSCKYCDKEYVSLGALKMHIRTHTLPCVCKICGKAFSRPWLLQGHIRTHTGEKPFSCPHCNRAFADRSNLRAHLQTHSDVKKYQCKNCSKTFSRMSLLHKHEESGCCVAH
# T2: Flag-tagged SNAI2 (UniProt O43623)
# T2 sequence: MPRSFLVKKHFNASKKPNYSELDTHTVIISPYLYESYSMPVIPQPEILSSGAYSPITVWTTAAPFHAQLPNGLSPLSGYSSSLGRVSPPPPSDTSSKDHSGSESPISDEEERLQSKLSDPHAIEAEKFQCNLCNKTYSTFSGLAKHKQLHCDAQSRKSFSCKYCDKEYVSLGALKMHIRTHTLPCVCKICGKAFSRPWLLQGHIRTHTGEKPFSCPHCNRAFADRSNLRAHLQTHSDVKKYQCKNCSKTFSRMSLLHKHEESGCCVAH
# Columns and labels:
# [1] = molecular target: T1, endogenous SNAI2 (human (endogenous in UM-SCC1)); assay: co-IP; endogenous proteins in UM-SCC1 cells; IP with SNAI2 and IP with SUZ12; lysis in Cellytic buffer, antibody overnight at 4 °C, protein A or G Dynabeads, washes with PBS and 0.1% NP40
# [2] = molecular target: Signal transducer and activator of transcription 3 (STAT3) (UniProt P40763); assay: co-IP; STAT3 with SNAI2, SUZ12, HDAC1 and EZH2 (Figure 6E-F); cells and precipitated protein not told; lysis in Cellytic buffer, antibody overnight at 4 °C, protein A or G Dynabeads
# [3] = molecular target: endogenous SUZ12 (human (endogenous in UM-SCC1)) (UniProt Q15022); assay: co-IP; endogenous proteins in UM-SCC1 cells; IP with SNAI2 and IP with SUZ12; lysis in Cellytic buffer, antibody overnight at 4 °C, protein A or G Dynabeads, washes with PBS and 0.1% NP40
# Flag-tagged SNAI2 = molecular target: T2, Flag-tagged SNAI2; assay: co-IP; HEK293T cells with Flag-tagged SNAI2 and HA-tagged SUZ12; lysis in Cellytic buffer, antibody overnight at 4 °C, protein A or G Dynabeads, washes with PBS and 0.1% NP40; which protein was precipitated is not told
binding [1],binding [2],binding [3],binding (Flag-tagged SNAI2),Molecule
binds,binds,,,endogenous SUZ12 (from UniProt Q15022 1-739)
binds,,binds,,endogenous HDAC1 (from UniProt Q13547 1-482)
,,,binds,HA-tagged SUZ12 (from UniProt Q15022 1-739)
,binds,binds,,"endogenous SNAI2 (protein, UniProt O43623 1-268) MPRSFLVKKHFNASKKPNYSELDTHTVIISPYLYESYSMPVIPQPEILSSGAYSPITVWTTAAPFHAQLPNGLSPLSGYSSSLGRVSPPPPSDTSSKDHSGSESPISDEEERLQSKLSDPHAIEAEKFQCNLCNKTYSTFSGLAKHKQLHCDAQSRKSFSCKYCDKEYVSLGALKMHIRTHTLPCVCKICGKAFSRPWLLQGHIRTHTGEKPFSCPHCNRAFADRSNLRAHLQTHSDVKKYQCKNCSKTFSRMSLLHKHEESGCCVAH"
